Measured values reported in US6248765A, “Imidazole derivatives as histamine receptor H3 (ANT) agonists” (priority 1995, dated 2001).
Some of these results come from one statement about several compounds together. For some of these results: For at least one compound, name, drawing or mass did not settle the structure.

Sequences of proteins named here, by UniProt entry; tags and fusion partners are left off. A change or cut given only in a name is not applied to a line headed by its entry.
UniProt Q9QYN8: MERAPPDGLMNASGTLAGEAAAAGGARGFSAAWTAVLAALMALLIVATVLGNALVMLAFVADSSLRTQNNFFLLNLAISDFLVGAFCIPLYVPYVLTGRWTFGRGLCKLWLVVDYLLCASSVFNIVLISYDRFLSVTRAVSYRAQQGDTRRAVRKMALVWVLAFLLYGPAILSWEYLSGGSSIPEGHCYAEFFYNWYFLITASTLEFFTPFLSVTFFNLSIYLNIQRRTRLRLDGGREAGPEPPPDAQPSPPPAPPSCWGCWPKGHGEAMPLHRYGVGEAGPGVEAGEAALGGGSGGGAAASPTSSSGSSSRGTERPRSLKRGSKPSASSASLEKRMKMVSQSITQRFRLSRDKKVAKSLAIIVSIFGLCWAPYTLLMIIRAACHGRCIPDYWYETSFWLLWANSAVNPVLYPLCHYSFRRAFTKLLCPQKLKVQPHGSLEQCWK

Molecular target: T1, histamine H3 receptor (Rattus norvegicus, UniProt Q9QYN8)
T1 construct: synthesized from [^3 H]histidine by synaptosomes of rat cerebral cortex; from tissue; host or cells: rat cerebral cortex synaptosomes
Test: H3 agonist effect: inhibition of [3H]histamine release from synaptosomes of rat cerebral cortex
Format: biochemical
Conditions: in words
Procedure: The partial agonist effect of the compounds is evaluated by comparison of the maximum inhibition which they induce relative to the maximum inhibition induced by exogenous histamine or [R]-α-methylhistamine; the ratio of these two values giving the intrinsic activity of the compound with respect to the system.

Row | SMILES | functional class at the histamine H3 receptors (agonists)
1 | CCc1cccc(NCCCc2c[nH]cn2)c1.O=C(O)C(=O)O [Example 156, 4-[3-(3-Ethylphenylamino)propyl]-1H-imidazole oxalate] | agonists or partial agonists
2 | FC(F)(F)c1cccc(NCCCc2c[nH]cn2)c1.O=C(O)C(=O)O [Example 154, 4-[3-(3-Trifluoromethylphenylamino)propyl]-1H-imidazole oxalate] | agonists or partial agonists

Molecular target: T1, histamine H3 receptor
Test: H3 antagonist power: reversal of (R)-alpha-methylhistamine-induced inhibition of [3H]histamine release from synaptosomes of rat cerebral cortex
Format: biochemical
Conditions: not given

Row | SMILES | functional class at the histamine H3 receptors (antagonists)
3 | CCC(=O)c1ccc(OCCCc2c[nH]cn2)cc1 [Example 79, (4-(3-(1H-Imidazol-4-yl)propyloxy)phenyl)propanone] | antagonists

Same assay, conditions: in words

Row | SMILES | functional class at the histamine H3 receptors (antagonists)
4 | CC(C)C(O)c1ccc(OCCCc2c[nH]cn2)cc1 (stereo not shown) [Example 89] | antagonists
5 | CC(=O)c1cccc(NC(=O)OCCCc2c[nH]cn2)c1 [Example 97, N-(3-Acetylphenyl)-(3-(1H-imidazol-4-yl)propyl carbamate] | antagonists
6 | CC(=NO)c1ccc(OCCCc2c[nH]cn2)cc1C [Example 144, (4-(3-(1H-Imidazol-4-yl)propyloxy)-2-methylphenyl)ethanone oxime] | antagonists
7 | O=CC=Cc1ccc(OCCCc2c[nH]cn2)cc1 [Example 104, 3-(4-(3-(1H-Imidazol-4-yl)propyloxy)phenyl)propenal] | antagonists
8 | O=C(CCCOCCCc1c[nH]cn1)c1ccc(F)cc1 [Example 125, 4-(Fluorophenyl)-4-(3-(1H-imidazol-4-yl)propyloxy)butanone] | antagonists
9 | CCC(=O)c1ccc(OCCc2c[nH]cn2)cc1.O=C(O)C(=O)O [Example 161, 4-[2-(4-Propionylphenoxy)ethyl]-1H-imidazole oxalate] | antagonists
10 | c1ccc(CCCCCCc2c[nH]cn2)cc1 [Example 179, 1-(1H-Imidazol-4-yl)-6-phenyl hexane] | antagonists
11 | O=C(COCCCc1c[nH]cn1)c1cccc([N+](=O)[O-])c1 [Example 75, 2-(3-(1H-Imidazol-4-yl)propyloxy)-1-(3-nitrophenyl)ethanone] | antagonists
12 | Cc1ccc(C(=O)CCc2c[nH]cn2)cc1 [Example 50, 3-(1H-Imidazol-4-yl)-1-(4-methylphenyl)propanone] | antagonists
13 | Fc1ccc(CCCOCC=Cc2c[nH]cn2)cc1 [Example 70, 3-(4-Fluorophenyl)propyl 3-(1H-imidazol-4-yl)-2-propenyl ether] | antagonists
14 | ON=C(c1ccc(OCCCc2c[nH]cn2)cc1)C1CC1 [Example 143, Cyclopropyl 4-(3-(1H-imidazol-4-yl)propyloxy)phenyl ketone oxime] | antagonists
15 | CC(=O)CCc1ccc(OCCCc2c[nH]cn2)cc1 [Example 76, 4-(4-(3-(1H-Imidazol-4-yl)propyloxy)phenyl)-2-butanone] | antagonists
16 | O=C1CCc2cc(OCCCc3c[nH]cn3)ccc21 [Example 132, 5-(3-(1H-Imidazol-4-yl)propyloxy)-1-indanone] | antagonists
17 | O=C(NCc1ccc(F)cc1)OCCc1c[nH]cn1 [Example 43, N-(4-Fluorophenylmethyl)-2-(1H-imidazol-4-yl) ethyl carbamate] | antagonists
18 | CON=Cc1ccc(OCCCc2c[nH]cn2)cc1 [Example 146, (4-(3-(1H-Imidazol-4-yl)propyloxy)phenyl)carbaldehyde O-methyloxime] | antagonists
19 | ON=Cc1cccc(OCCCc2c[nH]cn2)c1 [Example 107, 4-[3-(3-Hydroxyiminomethylenephenoxy)propyl]-1H-imidazole] | antagonists
20 | Cc1nc(-c2ccc(OCCCc3c[nH]cn3)cc2)no1 [Example 149, 3-(1H-Imidazol-4-yl)propyl 4-(5-methyl-1,2,4-oxadiazol-3-yl)phenyl ether] | antagonists
21 | O=C(N[C@@H]1C[C@H]1c1ccccc1)OCCCc1c[nH]cn1 (relative stereo) [Example 42, 3-(1H-Imidazol-4-yl)propyl-N-trans-(2-phenylcyclopropyl) carbamate] | antagonists
22 | CC(O)c1ccc(OCCCc2c[nH]cn2)cc1 (stereo not shown) [Example 88, 1-(4-(3-(1H-Imidazol-4-yl)propyloxy)phenyl)ethanol] | antagonists
23 | C[Si](C)(C)C#Cc1ccc(OCCCc2c[nH]cn2)cc1 [Example 171, 3-(1H-Imidazol-4-yl)propyl 4-(2-(trimethylsilyl)-1-ethynyl)phenyl ether] | antagonists
24 | O=C(NCc1cccs1)OCCCc1c[nH]cn1 [Example 48, 3-(1H-Imidazol-4-yl)propyl-N-(2-thenyl) carbamate] | antagonists
25 | O=C(O)C(F)(F)F.c1cn(-c2ccc(OCCCc3c[nH]cn3)cc2)cn1 [Example 164, 4-[3-(4-Imidazol-1-ylphenoxy)propyl]-1H-imidazole trifluoroacetate] | antagonists

Row | SMILES | functional class at the histamine H3 receptors (antagonists)
26 | Clc1ccc(NCCCc2c[nH]cn2)cc1.O=C(O)C(=O)O [Example 170, 4-[3-(4-Chlorophenylamino)propyl]-1H-imidazole oxalate] | antagonists
27 | CC(CNC(=O)OCCCc1c[nH]cn1)c1ccccc1 (stereo not shown) [Example 44, 3-(1H-Imidazol-4-yl)propyl N-(2-phenylpropyl) carbamate] | antagonists
28 | COc1ccc(CCCOCCCc2c[nH]cn2)cc1 [Example 62, 3-(1H-Imidazol-4-yl)propyl 3-(4-methoxyphenyl)propyl ether] | antagonists
29 | CC(=NO)c1ccc(OCCCc2c[nH]cn2)cc1 [Example 92, (4-(3-(1H-Imidazol-4-yl)propyloxy)phenyl)ethanone oxime] | antagonists
30 | c1ccc(OCCOCCCc2c[nH]cn2)cc1 [Example 68, 3-(1H-Imidazol-4-yl)propyl 2-(phenoxy)ethyl ether] | antagonists
31 | CON=C(C)c1ccc(OCCCc2c[nH]cn2)cc1 [Example 93, (4-(3-(1H-Imidazol-4-yl)propyloxy)phenyl)ethanone O-methyloxime] | antagonists
32 | CCc1ccc(NCCCc2c[nH]cn2)cc1.O=C(O)C(=O)O [Example 169, 4-[3-(4-Ethylphenylamino)propyl]-1H-imidazole oxalate] | antagonists
33 | Cc1ccc(CCCOCCCc2c[nH]cn2)cc1 [Example 55, 3-(1H-Imidazol-4-yl)propyl 3-(4-methylphenyl)propyl ether] | antagonists
34 | Cc1cc(C)cc(NC(=O)OCCCc2c[nH]cn2)c1 [Example 115, N-(3,5-Dimethylphenyl)-3-(1H-imidazol-4-yl)propyl carbamate] | antagonists
35 | OC(c1ccc(OCCCc2c[nH]cn2)cc1)C1CC1 (stereo not shown) [Example 90] | antagonists
36 | Clc1ccc(CCCOCCCc2c[nH]cn2)c(Cl)c1 [Example 60, 3-(2,4-Dichloropheuyl)propyl-3-(1H-imidazol-4-yl)propyl ether] | antagonists
37 | CCCC(=NO)c1ccc(OCCCc2c[nH]cn2)cc1 [Example 140, (4-(3-(1H-Imidazol-4-yl)propyloxy)phenyl)butanone oxime] | antagonists
38 | CC(=O)c1ccc(NC(=O)OCCCc2c[nH]cn2)cc1 [Example 96, N-(4-Acetylphenyl)-(3-(1H-imidazol-4-yl)propyl carbamate] | antagonists
39 | CC(=O)c1cccc(SCCCc2c[nH]cn2)c1.O=C(O)C(=O)O [Example 168, 4-[3-(3-Acetylphenylthio)propyl]-1H-imidazole oxalate] | antagonists
40 | c1ccc(CCOCCCc2c[nH]cn2)cc1 [Example 63, 3-(1H-Imidazol-4-yl)propyl 2-phenylethyl ether] | antagonists
41 | CN(C)S(=O)(=O)c1cccc(OCCCc2c[nH]cn2)c1 [Example 23, 4-[3-(3-N,N-Dimethylsulphonamidophenoxy)propyl]-1H-imidazole] | antagonists
42 | OCc1ccc(OCCCc2c[nH]cn2)cc1 [Example 87, (4-(3-(1H-imidazol-4-yl)propyloxy)phenyl)methanol] | antagonists
43 | Cc1ccc(OCCc2c[nH]cn2)cc1.O=C(O)C(=O)O [Example 160, 4-[2-(4-Methylphenoxy)ethyl]-1H-imidazole oxalate] | antagonists
44 | ON=Cc1ccc(OCCCc2c[nH]cn2)cc1 [Example 138, (4-(3-(1H-Imidazol-4-yl)propyloxy)phenyl)carbaldehyde oxime] | antagonists
45 | CCC(C)c1ccc(OCCCc2c[nH]cn2)cc1.O=C(O)C(=O)O (stereo not shown) [Example 162, 4-[3-(4-sec-Butylphenoxy)propyl]-1H-imidazole oxalate] | antagonists
46 | CCc1ccc(OCCCc2c[nH]cn2)cc1.O=C(O)C(=O)O [Example 163, 4-[3-(4-Ethylphenoxy)propyl]-1H-imidazole oxalate] | antagonists
